Screening data

Data taken from PubChem BioAssay AID1159506, deposited by NCATS (2015).

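Luminescence from an EWS-FLI1 target-promoter (NR0B1) reporter, set against a CMV-promoter reporter, two days after silencing single genes in TC32 Ewing sarcoma cells.
Each siRNA was applied at 20 nM.
A z-score of the log NR0B1-over-CMV signal, less the median of siRNAs with the same seed; more negative means a stronger specific loss of the NR0B1 reporter.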

The strongest results of the screen are mostly left out here.
Sequences are the guide (antisense) strand, without overhang.

| # | strand | gene | seed-corrected z-score |
|---|---|---|---|
| 1 | `UAGUCAGAGACCGAGCUGC` | S1PR1 | -0.7862 |
| 2 | `AUUCCAGUGAACUAAAUGC` | CA5A | -0.6295 |
| 3 | `AGCGUGGAAAGGACUAUCC` | NWD2 | 0.005939 |
| 4 | `UCAGCUGCAACCAUGCACU` | RNF144A | -0.8223 |
| 5 | `AGAGUUGCAAGGCACAAGG` | LPAR4 | 1.694 |
| 6 | `UUGGAUUACUUUUACCUUC` | FNDC3A | 0.2038 |
| 7 | `UAAGUUACUAGACGAAAAG` | SIX2 | 0.6076 |
| 8 | `UCCGUGCUCGCUGUGAAGU` | ASGR1 | -0.3543 |
| 9 | `UUCUUGAAACUACAUCUCC` | SAV1 | 0.09403 |
| 10 | `UCAUUCAUAAAUUUGAAUG` | MAGEA5 | 0.3103 |
| 11 | `UGAUUAUCCAGAGGAUCAG` | SPTLC1 | 0.9569 |
| 12 | `UUAUGUAUUACCCAUUCCA` | PRELID3B | 0.5632 |
| 13 | `UCUGGUUUGAACAAAGGAC` | ZNF543 | -0.7688 |
| 14 | `UCUCUCAUCACUGUUGCAC` | TMEM140 | 0.4612 |
| 15 | `GCCCUUGUUACACUGCUGC` | CICP18 | 1.192 |
| 16 | `UUUCGAAUCAAGAAGACGA` | TAF13 | 0.5791 |
| 17 | `UGGUGAACUACUACGUAUC` | LOC729870 | -0.6163 |
| 18 | `UUUCGAGUAACGAAAUUAG` | GMDS | -0.1023 |
| 19 | `UGACUUCAAAUGUAUUUAG` | DCTN6 | -0.2442 |
| 20 | `UUUCAUAUGUAGUUAGUUC` | OGFRL1 | 0.0862 |
| 21 | `UCCUUUGAUCUUAGUUUGG` | MBLAC1 | 1.355 |
| 22 | `AGAGAGGCUACCUUGAUCC` | KLHL35 | 1.145 |
| 23 | `UUCGUAAAAGUAGCAGGCG` | FZD10 | -0.3039 |
| 24 | `UACACUCUCCAUUUGGAGC` | PRKCDBP | 1.013 |
| 25 | `UUUGUGAUUUGUUCAGCUG` | C2orf71 | 0.4234 |
| 26 | `AAAGGCUUUCGUAAUCUCC` | RHOBTB1 | 0.003484 |
| 27 | `AGUAUCGACAUUCACAUCG` | FAM156B | -0.1044 |
| 28 | `UGAUUAGCCGUGACAUUCC` | PITPNM3 | 0.08623 |
| 29 | `UCAUUGUACAAGUAGGUUC` | TNFRSF1A | 0.2139 |
| 30 | `UAUUGGGCAGCGACAAGUU` | ABCA2 | 0.3342 |
| 31 | `UUUAAAUUACCCAUAGUGG` | SALL3 | 0.5872 |
| 32 | `AGAGAUAUCACAAAAGUAG` | OR6Y1 | -1.949 |
| 33 | `UUAGUAAGACAGUAGAAUC` | MFSD14B | -1.312 |
| 34 | `AACUCCUCACGGAUCUUGC` | TUBB6 | 0.4256 |
| 35 | `UUCUGUGCAUACAUAAGGC` | HKR1 | -0.9927 |
| 36 | `UUUCUAAGGAAAAACGGCA` | TSPO2 | -0.01383 |
| 37 | `UAUCCUAAAAAGACUUCCC` | TIMMDC1 | 0.8342 |
| 38 | `UACGAGGUCGGACCAAUCC` | RNMTL1 | 0.5614 |
| 39 | `UCUUCAUCUAGCUUGCAGC` | C4orf19 | -0.1543 |
| 40 | `AUCGGAAUGGGUCAAAUCC` | STIM1 | 0.5477 |
| 41 | `UCUGAGAUGUACAAUGAGC` | ZNF26 | -0.3334 |
| 42 | `UACUCAGUGACAUCCGUGC` | TRIOBP | -0.1488 |
| 43 | `UGAGAAUCCUGAUUACAGU` | ANXA10 | -0.2705 |
| 44 | `UGCGUUUUCCCUCAAAUCC` | FMO2 | -0.5203 |
| 45 | `AAUGUUACCUCUGCUCUCC` | TTC29 | -0.9617 |
| 46 | `UGAUCCAUCAGAAUCAACG` | ACAD9 | -0.3943 |
| 47 | `UUUGUUUAUAUCAUCCCUU` | LOC284023 | 0.7589 |
| 48 | `UGACGAAAGGCACCUAUCC` | TLR3 | 0.2399 |
| 49 | `UCUAGAUCAGCAGUUAUAU` | SPCS3 | 0.03221 |
| 50 | `AUGGGAAUUAGAGUGGAGG` | CECR6 | 0.2209 |
| 51 | `AUAGCAACAACAUCCACGG` | WDR36 | 1.138 |
| 52 | `UAUGGGAUUCCAAAGUAGU` | ARSG | -0.02161 |
| 53 | `UGUCACAUCAGCUCGAAGC` | EIF2D | -0.4904 |
| 54 | `UUACUUCGUGGGUUAGUCG` | DLG2 | 0.4047 |
| 55 | `UCAGACUCAAGUCUGCUGG` | GNB3 | 0.1887 |
| 56 | `AUUGGGAUCUCUCAUCACC` | PABPC4 | 0.4372 |
| 57 | `UUCUUUAUUAGAAUAGUUC` | OOEP | -0.6909 |
| 58 | `ACUUUUUCCAUUGUUACUG` | ZNF302 | -0.1181 |
| 59 | `UGCUUGCUUAGAUUUUCGC` | ATG14 | 0.07686 |
| 60 | `UUUAAGCUGAUGUAAACGG` | CDK5RAP1 | 0.0256 |
| 61 | `UGUAGUCGUACUGUGAGCG` | SOX9 | -0.3192 |
| 62 | `UUCCUCUAAAGAGUCCUUC` | TMCC1 | -0.7474 |
| 63 | `UUGUAGUACUUCUUGUUGG` | DPCD | 0.7489 |
| 64 | `UAUCAAUCAUCUCUUGAGG` | B3GNT2 | 0.2183 |
| 65 | `UUGUAGUUCGACUAAGUGC` | WDHD1 | 0.2217 |
| 66 | `UUCUGAUUUGUCGGUAUCC` | STK17A | -1.21 |
| 67 | `UAUGUUAUCUGAUUGCACC` | PLPP4 | 0.004947 |
| 68 | `UCUCCGACAUGUAAGUGCG` | GPAA1 | 0.3668 |
| 69 | `UAGUGGUGACGGUCCAUGU` | FAM20C | -0.6982 |
| 70 | `AACUGGUGUGGUUCUUCUC` | MS4A15 | -0.6563 |
| 71 | `UCGCAGAAGCCGUUGAUGC` | GGA1 | 0.2391 |
| 72 | `AAACUUAGUCUGUAUAGUG` | PCDHA2 | -0.0616 |
| 73 | `UACGGAAUAAAAUGGGAUG` | CCDC66 | -0.4012 |
| 74 | `UAAGGAAACUGGUGAACUG` | BEND6 | 0.327 |